Results are given in words; binding and its absence hold for the method and conditions named. For part of these data: Binding calls can cover weak binding; strength is not graded here. For part of these data: Sequences can lack the tags named with a protein.

Sequences of proteins named here, by UniProt entry; tags and fusion partners are left off. A change or cut given only in a name is not applied to a line headed by its entry.
UniProt C5J412: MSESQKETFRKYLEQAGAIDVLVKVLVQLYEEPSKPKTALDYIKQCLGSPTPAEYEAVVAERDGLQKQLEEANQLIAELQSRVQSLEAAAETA

This is an account of results in paper PMC4901443.

Experiment [1] concerns the target T1, RSP3 (AKAP97), endogenous in axonemes (Chlamydomonas reinhardtii (endogenous in axonemes)) (UniProt P12759).
T1 sequence: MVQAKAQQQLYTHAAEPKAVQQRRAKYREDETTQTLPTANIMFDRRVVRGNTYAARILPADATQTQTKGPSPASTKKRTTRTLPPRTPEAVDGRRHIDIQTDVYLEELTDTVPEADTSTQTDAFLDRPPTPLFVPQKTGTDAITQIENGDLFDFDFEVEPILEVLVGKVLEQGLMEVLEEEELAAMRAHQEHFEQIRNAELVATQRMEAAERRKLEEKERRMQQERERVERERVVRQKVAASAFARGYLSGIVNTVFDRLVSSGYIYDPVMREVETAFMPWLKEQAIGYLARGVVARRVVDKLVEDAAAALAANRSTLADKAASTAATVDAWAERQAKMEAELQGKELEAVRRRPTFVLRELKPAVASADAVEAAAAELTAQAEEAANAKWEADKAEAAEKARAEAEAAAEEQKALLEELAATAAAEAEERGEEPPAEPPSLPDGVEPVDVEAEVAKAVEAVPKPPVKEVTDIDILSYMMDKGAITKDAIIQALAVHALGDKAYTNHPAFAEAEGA
In words: far-Western, overlay or dot blot; axonemes of WT and mutants (pf14, pf15, pf18, pf19, pf20) on SDS-PAGE, blotted on nitrocellulose, overlaid with ~20 μg/ml purified 6His-FAP174 or 6His-RIIa D/D; detected with HRP-conjugated anti-His antibody; only the binder purified.

Experiment [2] addresses 6His-FAP174 (Flagellar Associated Protein 174) (Chlamydomonas reinhardtii) (UniProt C5J412). The experiment can be described thus: pull-down; purified 6His-tagged protein held on Ni-NTA resin (4 °C, 1 h), purified GST fusion or GST added (4 °C, 2 h); 25 mM Tris-Cl pH 7.5, 150 mM NaCl, 5 % sucrose, 0.1 % Triton-X, 50 mM imidazole; silver staining; both purified.
For experiment [3], the target named is 6His-tagged Arl6 (ADP ribosylation factor-like 6 protein) (Chlamydomonas reinhardtii). The experiment is described as above.

With “6His-FAP174 (Flagellar Associated Protein 174) (from UniProt C5J412)”, the binding entry in experiment [1] is given as “no binding (tested: ~20 μg/ml)”.

B1: GST-RSP3 AH(96–180) (domain or fragment, UniProt P12759 96-180)
chain: HIDIQTDVYLEELTDTVPEADTSTQTDAFLDRPPTPLFVPQKTGTDAITQIENGDLFDFDFEVEPILEVLVGKVLEQGLMEVLEE
With B1, the binding result in experiment [2] is on record as “binds weakly”; in experiment [3], “no binding”.
